{"source": "patent US7090872B2", "about": "“Antioxidant, skin preparation for external use, cosmetic and food” (Nichirei Biosciences Inc., priority 2002, dated 2006)", "test": "Antioxidative activity measurement using linoleic acid (ferric thiocyanate method)", "settings": "0.128 mg of quercitrin (32% of 0.4 mg solid); control = 100%", "note": "For at least one compound, name, drawing or mass did not settle the structure.", "data": [{"smiles": "C[C@@H]1O[C@@H](Oc2c(-c3ccc(O)c(O)c3)oc3cc(O)cc(O)c3c2=O)[C@H](O)[C@H](O)[C@H]1O", "note": "[quercitrin]", "values": [{"measurement": "degree of oxidation on day 7", "value": 6.9, "unit": "%"}]}]}
